## Percent effect of library compounds

Sequences of proteins named here, by UniProt entry; tags and fusion partners are left off. Residues count along the entry.
UniProt P9WFT3, whole entry: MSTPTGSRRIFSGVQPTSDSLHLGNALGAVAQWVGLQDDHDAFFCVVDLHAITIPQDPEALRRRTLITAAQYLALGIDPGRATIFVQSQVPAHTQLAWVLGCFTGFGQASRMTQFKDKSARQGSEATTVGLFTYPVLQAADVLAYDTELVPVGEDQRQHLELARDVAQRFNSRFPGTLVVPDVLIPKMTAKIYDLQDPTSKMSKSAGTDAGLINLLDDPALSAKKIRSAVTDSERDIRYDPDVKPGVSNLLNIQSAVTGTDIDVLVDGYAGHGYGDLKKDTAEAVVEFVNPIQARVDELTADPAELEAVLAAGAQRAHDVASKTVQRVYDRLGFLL
UniProt P9WPC5, whole entry: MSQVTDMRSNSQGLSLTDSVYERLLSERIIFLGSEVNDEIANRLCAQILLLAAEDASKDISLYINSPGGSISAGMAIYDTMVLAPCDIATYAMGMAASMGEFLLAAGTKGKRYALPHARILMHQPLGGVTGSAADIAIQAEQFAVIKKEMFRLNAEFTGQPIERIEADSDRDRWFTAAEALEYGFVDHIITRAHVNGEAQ
UniProt P9WPC3, whole entry partner: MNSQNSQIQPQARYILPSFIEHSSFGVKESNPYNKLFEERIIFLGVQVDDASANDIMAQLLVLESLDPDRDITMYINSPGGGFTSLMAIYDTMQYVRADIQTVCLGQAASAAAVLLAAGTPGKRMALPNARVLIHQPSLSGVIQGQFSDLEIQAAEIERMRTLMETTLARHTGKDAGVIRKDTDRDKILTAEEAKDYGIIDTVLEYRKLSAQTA
UniProt I6X8D2, whole entry: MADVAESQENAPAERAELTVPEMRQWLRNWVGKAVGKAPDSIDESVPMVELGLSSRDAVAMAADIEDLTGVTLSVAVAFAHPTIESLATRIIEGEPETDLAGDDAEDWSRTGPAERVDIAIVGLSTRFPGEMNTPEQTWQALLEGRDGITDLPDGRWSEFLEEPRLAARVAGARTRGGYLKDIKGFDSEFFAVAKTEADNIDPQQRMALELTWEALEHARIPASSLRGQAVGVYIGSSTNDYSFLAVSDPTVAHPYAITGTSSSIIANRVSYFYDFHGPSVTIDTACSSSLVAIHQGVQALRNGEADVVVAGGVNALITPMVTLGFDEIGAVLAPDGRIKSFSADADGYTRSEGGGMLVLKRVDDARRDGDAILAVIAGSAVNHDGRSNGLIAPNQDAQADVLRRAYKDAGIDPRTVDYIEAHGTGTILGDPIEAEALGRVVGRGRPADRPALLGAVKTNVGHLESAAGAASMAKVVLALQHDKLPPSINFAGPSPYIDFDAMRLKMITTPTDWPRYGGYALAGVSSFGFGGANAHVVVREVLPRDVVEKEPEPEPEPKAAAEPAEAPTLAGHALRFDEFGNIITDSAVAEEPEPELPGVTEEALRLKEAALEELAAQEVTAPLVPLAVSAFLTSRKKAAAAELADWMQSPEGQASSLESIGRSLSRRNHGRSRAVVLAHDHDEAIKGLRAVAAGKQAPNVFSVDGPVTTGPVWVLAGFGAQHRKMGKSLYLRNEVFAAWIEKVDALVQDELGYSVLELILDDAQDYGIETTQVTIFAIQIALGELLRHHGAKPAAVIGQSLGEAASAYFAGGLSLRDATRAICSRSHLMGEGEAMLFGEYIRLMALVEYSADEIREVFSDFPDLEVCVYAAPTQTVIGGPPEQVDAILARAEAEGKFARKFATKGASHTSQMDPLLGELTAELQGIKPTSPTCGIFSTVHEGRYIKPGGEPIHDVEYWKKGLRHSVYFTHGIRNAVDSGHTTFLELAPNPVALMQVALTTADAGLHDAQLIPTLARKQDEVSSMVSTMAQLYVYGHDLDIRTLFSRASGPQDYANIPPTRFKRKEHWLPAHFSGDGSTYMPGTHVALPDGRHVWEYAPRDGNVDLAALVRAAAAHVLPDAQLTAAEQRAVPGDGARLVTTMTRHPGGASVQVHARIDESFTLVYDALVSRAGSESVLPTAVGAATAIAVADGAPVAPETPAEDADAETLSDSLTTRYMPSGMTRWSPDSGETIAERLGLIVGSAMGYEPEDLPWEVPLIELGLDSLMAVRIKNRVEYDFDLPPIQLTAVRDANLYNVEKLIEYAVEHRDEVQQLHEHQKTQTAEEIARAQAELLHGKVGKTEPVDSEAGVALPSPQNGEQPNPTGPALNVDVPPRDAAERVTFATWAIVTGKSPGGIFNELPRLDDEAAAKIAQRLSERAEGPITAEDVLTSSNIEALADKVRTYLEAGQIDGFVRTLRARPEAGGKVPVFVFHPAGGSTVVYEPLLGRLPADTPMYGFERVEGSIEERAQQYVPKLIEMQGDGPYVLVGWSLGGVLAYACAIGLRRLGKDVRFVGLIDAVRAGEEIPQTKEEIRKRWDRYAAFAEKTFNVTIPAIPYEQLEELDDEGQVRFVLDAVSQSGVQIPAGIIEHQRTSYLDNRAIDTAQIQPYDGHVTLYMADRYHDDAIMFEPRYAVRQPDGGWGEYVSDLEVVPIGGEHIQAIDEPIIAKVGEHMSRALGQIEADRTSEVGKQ
UniProt Q8IDJ8, 1-583: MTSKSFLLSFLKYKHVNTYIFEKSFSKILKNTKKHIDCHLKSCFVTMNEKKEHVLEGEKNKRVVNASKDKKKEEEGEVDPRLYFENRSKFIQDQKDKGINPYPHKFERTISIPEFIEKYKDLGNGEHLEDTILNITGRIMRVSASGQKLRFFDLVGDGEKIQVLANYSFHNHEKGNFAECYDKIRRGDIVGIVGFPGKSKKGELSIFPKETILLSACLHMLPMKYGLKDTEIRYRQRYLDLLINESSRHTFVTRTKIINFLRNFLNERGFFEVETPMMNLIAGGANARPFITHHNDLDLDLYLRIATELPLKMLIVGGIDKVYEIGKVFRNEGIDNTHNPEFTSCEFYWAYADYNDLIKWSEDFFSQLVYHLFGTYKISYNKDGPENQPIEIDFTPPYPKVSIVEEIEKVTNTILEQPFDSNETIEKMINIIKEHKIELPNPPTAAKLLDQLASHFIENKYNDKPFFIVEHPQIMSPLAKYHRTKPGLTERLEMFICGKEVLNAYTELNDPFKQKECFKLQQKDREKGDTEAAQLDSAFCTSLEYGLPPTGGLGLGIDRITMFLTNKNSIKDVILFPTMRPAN

Source: ChEMBL document CHEMBL3988442, “University of Dundee, Small-Polar-MMV Screening Library” (2021).

MtTrpRS: 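Tryptophan-tRNA ligase, Mycobacterium tuberculosis (UniProt P9WFT3). Enzyme assay of tryptophanyl-tRNA synthetase; the read-out is not stated. Tested at 10 µM. Higher most likely means stronger inhibition; the record gives no direction and few retests gave an IC50. Size under these conditions: about 65,000 compounds, about 64 of them at 50% or above in at least one test.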
ClpP1P2: 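Protease assay of ClpP1P2, read by the AMC dye that it sets free. Target: ClpP1P2, Mycobacterium tuberculosis (UniProt P9WPC5 and UniProt P9WPC3). Compounds at 50 µM. Direction is inferred from only a few compounds that gave an IC50; most scored high, so higher reads as stronger inhibition. Most other retested compounds had strongly negative values. Of about 69,000 compounds tested this way, about 10 (0.015%) reached 50% or more in at least one test.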
Pks13 thioesterase: 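Polyketide synthase Pks13, Mycobacterium tuberculosis (UniProt I6X8D2). Enzyme assay of the thioesterase domain of polyketide synthase 13; the read-out is not stated. Compounds at 30 µM. The record gives no direction; the compounds picked for IC50 retests had high values, so higher reads as stronger inhibition. Size under these conditions: about 67,000 compounds, about 300 of them at 50% or above in at least one test.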
PfKRS1: 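Enzyme assay of the cytosolic lysyl-tRNA synthetase in 384-well plates, read by luminescence. Target: Lysine-tRNA ligase, Plasmodium falciparum 3D7 (UniProt Q8IDJ8). Tested at 30 µM. Higher reads as stronger inhibition, judged from the few compounds that gave an IC50. Size under these conditions: about 69,000 compounds, about 49 of them at 50% or above in at least one test.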

Each number is a percent effect as filed.
The record does not define 0% and 100%; most values in the screen are far below 50% and negative numbers occur (in some assays of this library far below -100).
The compounds are a random part of those screened.

With O=C(NCC[S+]([O-])c1ccccc1)c1ccc2[nH]c(=O)[nH]c2c1 (stereo unspecified) the screen gave MtTrpRS: 1.06%; ClpP1P2: -6.737%; Pks13 thioesterase: -5.332%; PfKRS1: 1.797%. For COc1cccc(S(=O)(=O)N2CCCc3c(OC)nn(C)c3C2)c1 the result was MtTrpRS: -6.882%; ClpP1P2: -8.381%; Pks13 thioesterase: -29.91%; PfKRS1: 3.075%. For CN(C)Cc1ccnc(C2CCCN2Cc2ccncc2)n1 (stereo unspecified) the result was MtTrpRS: -1.087%; ClpP1P2: -11.48%; Pks13 thioesterase: -33.89%; PfKRS1: -1.998%. CC(C)N1CC(C(=O)NCc2cccnc2-n2cccn2)CC1=O (stereo unspecified) gave MtTrpRS: -7.219%; ClpP1P2: -4.279%; Pks13 thioesterase: -25.27%; PfKRS1: 1.626%. For c1ccc(-c2nc(CN3CCn4c(nnc4C4CC4)C3)no2)cc1 the result was MtTrpRS: -1.125%; ClpP1P2: 1.547%; Pks13 thioesterase: -25.97%; PfKRS1: 7.194%. Result for CCOCC(=O)N1CCc2nc(C)nc(NC(C)C)c2CC1 was ClpP1P2: 5.638%; Pks13 thioesterase: -35.34%; PfKRS1: -0.5623%. Result for CC(NC(=O)Nc1cccnc1N1CCOCC1)c1ccccn1 (stereo unspecified) was MtTrpRS: -3.398%; ClpP1P2: 1.746%; Pks13 thioesterase: -25.67%; PfKRS1: 1.731%.

Result for Fc1cnc(N2CC[C@@H]3OC(COCc4cccnc4)CC[C@@H]32)nc1 (stereo partly specified) was MtTrpRS: -4.869%; ClpP1P2: -10.18%; Pks13 thioesterase: 5.652%; PfKRS1: 3.787%. For COc1ccc(-c2nc(C#N)c(N(C)C)o2)cc1S(=O)(=O)N(C)C the result was MtTrpRS: -1.287%; ClpP1P2: -11.05%; Pks13 thioesterase: -6.831%; PfKRS1: 2.226%. With CN(Cc1n[nH]c2c1CCC2)C(=O)CCc1cc2n(n1)CCCNC2 the screen gave MtTrpRS: 2.441%; ClpP1P2: -6.1%; Pks13 thioesterase: -17.32%; PfKRS1: 0.2467%. Result for CCc1nnc(SCC(=O)N2CCc3[nH]nc(C4CCC4)c3C2)o1 was MtTrpRS: 5.216%; ClpP1P2: -3.363%; Pks13 thioesterase: -23.73%; PfKRS1: -0.3154%. Result for CCNC(=O)C1CN(Cc2c(-c3cc(C)on3)nn(C)c2Cl)CCO1 (stereo unspecified) was MtTrpRS: -7.29%; ClpP1P2: -7.608%; Pks13 thioesterase: -9.786%; PfKRS1: 11.46%. For CCNC(=O)CCC(=O)NC(C)Cc1ccccc1Br (stereo unspecified) the result was MtTrpRS: -0.8258%; ClpP1P2: -11.01%; Pks13 thioesterase: -30.29%; PfKRS1: 1.175%. For Cc1ccc(N2CC3(CCN(S(=O)(=O)C4CC4)C3)C2)nn1 the result was MtTrpRS: -0.9168%; ClpP1P2: -0.2876%; Pks13 thioesterase: -37.9%; PfKRS1: 2.518%.

Result for Cc1cc(NC(=O)N2CCC[C@@H]2CO)nn1-c1cccc(Cl)c1 was MtTrpRS: 0.7389%; ClpP1P2: -9.296%; Pks13 thioesterase: -21.65%; PfKRS1: 4.516%. For CCN1CC(C(=O)N2CCN(CCn3cccc3)CC2)CCC1=O (stereo unspecified) the result was MtTrpRS: -0.9009%; ClpP1P2: -11.01%; Pks13 thioesterase: -4.883%; PfKRS1: -5.395%. Result for Cc1c(C2CCCN(C(=O)C3CC3)C2)n2c(nc1=O)CCC2 (stereo unspecified) was MtTrpRS: -3.428%; ClpP1P2: 10.01%; Pks13 thioesterase: -19.96%; PfKRS1: 1.263%. With CNC(=O)NC(=O)CN(CC(C)O)c1ccccc1 (stereo unspecified) the screen gave MtTrpRS: -0.2441%; ClpP1P2: -16.3%; Pks13 thioesterase: -10.73%; PfKRS1: -1.791%. Result for Cc1nc(OCC(=O)N2CCCC2)cc(-n2cccn2)n1 was MtTrpRS: -3.307%; ClpP1P2: -5.45%; Pks13 thioesterase: -14.49%; PfKRS1: 5.191%. CC(C)(C)c1cn(C[C@H]2CC3CCN2C[C@@H]3C(=O)NC2CC2)nn1 (stereo partly specified) gave MtTrpRS: 10.7%; ClpP1P2: -10.38%; Pks13 thioesterase: -2.716%; PfKRS1: -6.381%. For CNC(=O)CN1CC[C@H]2CN(C(=O)c3ccc(C)cc3)C[C@H]2C1 the result was MtTrpRS: -2.995%; ClpP1P2: -4.173%; Pks13 thioesterase: -33.57%; PfKRS1: 4.468%.

With CCCN1C[C@H]2CC[C@@H]1CN(C(=O)Cn1c(C)cc(C)nc1=O)C2 the screen gave MtTrpRS: 3.799%; ClpP1P2: -36.36%; PfKRS1: 2.519%. With COCC(=O)N1CCCC1c1nc(O)cc(C(C)C)n1 (stereo unspecified) the screen gave MtTrpRS: 2.725%; ClpP1P2: 10.2%; Pks13 thioesterase: -1.474%; PfKRS1: 0.2995%. Cc1cc(C[C@@H]2COC[C@H]2NCc2ccc(C(F)(F)F)cc2)on1 gave ClpP1P2: -6.238%; Pks13 thioesterase: -5.565%; PfKRS1: 0.8899%. Result for O=C(COc1ccccc1)NCCNC(=O)c1scnc1Cl was MtTrpRS: -4.35%; ClpP1P2: -11.83%; Pks13 thioesterase: 1.455%; PfKRS1: 1.254%. Result for COc1ccc(OC)c2c(C)cc(N(CCO)CCO)nc12 was MtTrpRS: 1.847%; ClpP1P2: -3.53%; Pks13 thioesterase: -36.2%; PfKRS1: 3.968%. Result for CC(Cn1cncn1)NC(=O)NCC(C)(C)Cc1ccccc1 (stereo unspecified) was MtTrpRS: -4.352%; ClpP1P2: -3.199%; Pks13 thioesterase: -22.52%; PfKRS1: 4.152%. Result for Cc1ccc(F)cc1NC(=O)CNc1cccc2c1CCCC2 was MtTrpRS: 0.08794%; ClpP1P2: 12.94%; Pks13 thioesterase: -13.69%; PfKRS1: 9.488%.